Data as given in PMC7293280.

Biological target: T1, ADNP (in HEK293T cells, partner of the β-catenin fragments) (UniProt Q9Z103)
T1 sequence: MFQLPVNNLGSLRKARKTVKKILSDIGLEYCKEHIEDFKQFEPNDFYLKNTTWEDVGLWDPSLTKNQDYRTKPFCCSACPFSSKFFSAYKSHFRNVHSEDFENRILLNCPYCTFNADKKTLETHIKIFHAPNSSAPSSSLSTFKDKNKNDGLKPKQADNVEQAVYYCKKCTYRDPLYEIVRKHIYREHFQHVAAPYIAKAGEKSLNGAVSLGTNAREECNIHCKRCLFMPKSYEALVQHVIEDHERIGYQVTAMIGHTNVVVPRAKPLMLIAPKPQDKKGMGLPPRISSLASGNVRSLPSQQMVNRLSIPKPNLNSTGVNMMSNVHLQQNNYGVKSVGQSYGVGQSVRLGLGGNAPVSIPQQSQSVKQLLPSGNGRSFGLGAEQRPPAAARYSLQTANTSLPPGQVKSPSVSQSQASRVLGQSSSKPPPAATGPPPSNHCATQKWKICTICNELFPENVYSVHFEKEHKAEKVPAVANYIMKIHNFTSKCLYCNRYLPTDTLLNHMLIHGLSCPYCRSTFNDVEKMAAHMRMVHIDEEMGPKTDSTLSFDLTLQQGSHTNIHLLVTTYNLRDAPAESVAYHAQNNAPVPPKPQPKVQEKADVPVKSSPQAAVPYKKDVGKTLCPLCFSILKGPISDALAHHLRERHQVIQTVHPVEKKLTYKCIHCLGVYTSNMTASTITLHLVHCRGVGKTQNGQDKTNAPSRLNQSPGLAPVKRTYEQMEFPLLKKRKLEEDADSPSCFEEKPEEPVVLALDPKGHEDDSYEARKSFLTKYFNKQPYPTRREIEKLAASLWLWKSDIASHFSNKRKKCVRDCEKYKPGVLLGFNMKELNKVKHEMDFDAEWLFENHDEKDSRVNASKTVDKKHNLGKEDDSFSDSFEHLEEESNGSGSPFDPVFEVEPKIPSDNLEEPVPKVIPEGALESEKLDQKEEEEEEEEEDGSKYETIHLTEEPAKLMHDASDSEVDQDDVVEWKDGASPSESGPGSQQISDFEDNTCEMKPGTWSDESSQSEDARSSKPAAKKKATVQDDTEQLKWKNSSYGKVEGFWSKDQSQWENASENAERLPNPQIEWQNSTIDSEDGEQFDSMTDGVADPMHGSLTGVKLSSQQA
Experiment: co-IP; plasmids co-transfected into HEK293T cells; lysates, Dynabeads Protein G with anti-FLAG, anti-HA or anti-MYC antibody, overnight 4 °C, washes PBS 0.1% Tween

binding	Substance
binds	β-catenin Arm1 fragment (armadillo repeats 1–4) (domain or fragment)
binds	β-catenin Arm2 fragment (armadillo repeats 5–12) (domain or fragment)

Results are given in words; binding and its absence hold for the method and conditions named. Binding seen in cells or lysates may run through a third protein. Binding can be weak; no strength is given.
